Measurements: PubChem BioAssay AID504444 (National Center for Advancing Translational Sciences (NCATS), 2011)
The campaign covered roughly 360,000 compounds. About 7,500 (2.1%) were called active. This list was built around the results that the source calls inconclusive (neither active nor inactive); the mix of calls is not that of the screen. Calls come from the whole dose curve; as a rule, active = well fitted inhibition curve with a large enough effect; inconclusive = small, poorly fitted or top-dose-only effect, or effect the other way; inactive = flat fitted curve, though single readings scatter. Where the call is inconclusive, the potency comes from a doubtful curve fit.
Potency is the fitted concentration of half-maximal effect.

Experiment: Nrf2 qHTS screen for inhibitors; note: nearly all actives have a fitted effect of over 60% in size
Conditions: A549 ARE-Fluc reporter, luciferase luminescence, 18-24 h; series mostly up to 46 µM
Method in brief: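 Quantitative HTS in A549 cells stably bearing an antioxidant response element-firefly luciferase construct. Inhibition of Nrf2-driven transcription was scored by luminescence after 18-24 h of compound exposure at 37 °C.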
For `COCCNC(=O)c1c(N)n(/N=C/c2cccs2)c2nc3ccccc3nc12`, the Potency was inconclusive: 23.1 µM [falling, single point]. With `CC(=O)Oc1c(C)cc(Cl)cc1C(=O)Nc1ccc([N+](=O)[O-])cc1Cl` the Potency was active: 1.64 µM. In the case of `c1ccc2c(Nc3nc(N4CCOCC4)c4ccccc4n3)cccc2c1`, the Potency is reported as inconclusive: 29.1 µM [falling, single point]. In the case of `O=C(Nc1ccc(S(=O)(=O)Nc2nccs2)cc1)c1cnc(Cl)c(Cl)c1`, the Potency is reported as “inactive”. With `Cc1cc(C)cc(NC(=O)c2c(C)oc3nc(C)nc(N4CCCC4)c23)c1` the Potency was “inactive”. For `CCc1ccc(OCC(=O)Nc2ncn[nH]2)c(Br)c1`, the Potency was inconclusive: 29.1 µM [falling, single point]. For `CCOc1ccc(Nc2nn(-c3ccc(OC(F)(F)F)cc3)nc2C(C)=O)cc1`, the Potency was “inactive”. For `Cc1nnc(N/N=C/c2cc(C)n(-c3ccc(F)cc3)c2C)n1N`, the Potency was inconclusive: 18.4 µM [falling, single point]. For `CCn1cc([N+](=O)[O-])c(C(=O)N2N=C(c3ccc4ccccc4c3)CC2c2ccccc2O)n1` (centres undefined), the Potency was inconclusive: 29.1 µM [falling, single point]. With `COc1cc(/C=N/NC(=O)c2ccc(-c3ccccc3)cc2)cc(OC)c1OC` the Potency was inconclusive: 7.31 µM [falling, partial curve, poor fit]. For `COc1cccc(-c2noc(-c3cc(C(C)C)[nH]n3)n2)c1OC`, the Potency was inconclusive: 0.731 µM [activator, partial curve]. With `CCc1ccc(C(=O)NNc2ccccc2F)cc1` the Potency was inconclusive: 3.66 µM [activator, full curve]. With `O=C(NCc1ccccn1)C(=O)Nc1nc(C23CC4CC(CC(C4)C2)C3)cs1` the Potency was inconclusive: 29.1 µM [falling, single point]. In the case of `CCC(Sc1nc2ncccc2o1)C(=O)Nc1ccc(OC)c(OC)c1` (centres undefined), the Potency is reported as inconclusive: 23.1 µM [activator, partial curve, poor fit]. With `COc1ccc(NC(=O)Nc2ccc3nsnc3c2)cc1` the Potency was inconclusive: 0.13 µM [activator, full curve, poor fit]. With `O=C(NCCc1c[nH]c2ccccc12)C1CCC(Cn2c(=S)[nH]c3ccccc3c2=O)CC1` (centres undefined) the Potency was inconclusive: 23.1 µM [falling, partial curve, poor fit]. With `COC(CNC(=O)c1ccc2nc(-c3ccccc3)c(-c3ccccc3)nc2c1)OC` the Potency was active: 16.4 µM. In the case of `CC(C)Cc1ccc(C(C)C(=O)Nc2ccc(O)cc2)cc1` (centres undefined), the Potency is reported as inconclusive: 8.2 µM [falling, partial curve]. For `CCOC(=O)c1cc2sccc2n1CC(=O)N1CCc2ccccc21`, the Potency was inconclusive: 29.1 µM [falling, single point]. For `CCOc1ccccc1N(C)C(=O)c1c2c(nc3ccccc13)C(=O)N(C1CCCCC1)C2`, the Potency was “inactive”. For `CCc1cccc(C)c1Nc1c(-c2ccsc2)nc2ncccn12`, the Potency was “inactive”. In the case of `Cc1ccc2c(c1)c1c3n2CCN(C(=O)c2cccc(C(F)(F)F)c2)C3CCC1` (centres undefined), the Potency is reported as inconclusive: 32.6 µM [falling, single point]. With `Cc1nn(Cc2ccc(Cl)cc2)c(C)c1NC(=O)c1cc(-c2ccc3c(c2)OCO3)on1` the Potency was active: 4.11 µM. With `Cc1csc(NC(=S)NC(=O)c2ccccc2)n1` the Potency was inconclusive: 11.6 µM [activator, partial curve]. With `Cc1c(C)n(CCc2ccccc2)c2ncnc(NCCCO)c12` the Potency was inconclusive: 10.3 µM [activator, partial curve]. With `Clc1ccc(-c2noc(-c3cccnc3NCc3ccco3)n2)cc1` the Potency was inconclusive: 14.6 µM [activator, single point]. In the case of `CCc1nnc(NC(=O)c2cc(-c3ccccn3)nc3ccc(Br)cc23)s1`, the Potency is reported as inconclusive: 1.46 µM [falling, partial curve, poor fit]. For `O=C(COc1cc(F)ccc1[N+](=O)[O-])Nc1ccc(N2CCCCC2)cc1`, the Potency was inconclusive: 16.4 µM [falling, partial curve]. In the case of `CS(=O)(=O)c1ccc(C(=O)OCC(=O)NCC2CCCO2)cc1[N+](=O)[O-]` (centres undefined), the Potency is reported as “inactive”. In the case of `COc1ccc(C(=O)Nc2ccc(S(=O)(=O)Nc3nccnc3OC)cc2)cc1`, the Potency is reported as “inactive”. For `Oc1ccc(Cl)cc1CNc1cnc2ccccc2c1`, the Potency was “inactive”. For `CC(=O)Nc1ccc(NC(=O)c2nc(S(=O)(=O)Cc3ccccc3)ncc2Cl)cc1`, the Potency was “inactive”. For `CCN(CC)S(=O)(=O)c1cccc(NC(=O)CN2C(=O)NC3(CCC(C)CC3)C2=O)c1` (centres undefined), the Potency was inconclusive: 16.4 µM [falling, single point]. In the case of `N=c1c(S(=O)(=O)c2ccc(Br)cc2)cc2c(=O)n3ccccc3nc2n1C1CCCCC1`, the Potency is reported as inconclusive: 18.4 µM [falling, partial curve]. With `CCOc1c(Cl)cc(C(=O)N(Cc2ccc(N(C)C)cc2)Cc2ccco2)cc1Cl` the Potency was “inactive”. With `C=CCn1c(SCC(=O)Nc2ccc(C(=O)O)cc2)nc2sc(C)c(C)c2c1=O` the Potency was inconclusive: 32.6 µM [falling, single point]. With `CCOC(=O)Cc1csc(SCC(=O)Nc2ccc(C)cc2F)n1` the Potency was “inactive”. With `COc1cccc2c(C)cc(N3CCCCCC3)nc12` the Potency was inconclusive: 2.31 µM [falling, partial curve, poor fit]. In the case of `Cc1ccc(C)c(C2=NNC(=NCc3ccccc3)SC2)c1`, the Potency is reported as inconclusive: 16.4 µM [falling, partial curve]. For `CCS(=O)(=O)N1CCN(c2ccc(C(=O)N3CCOCC3)cc2[N+](=O)[O-])CC1`, the Potency was inconclusive: 32.6 µM [falling, single point]. For `O=C(c1cc(F)c(F)cc1Cl)N1CCCc2ccccc21`, the Potency was inconclusive: 18.4 µM [falling, single point]. For `CC(=O)c1c(C)[nH]c(C(=O)CN2CCN(S(=O)(=O)c3ccccc3F)CC2)c1C`, the Potency was active: 25.9 µM. In the case of `CCOc1ccc(CN2C(=O)c3ccccc3C2=O)cc1C(=O)Nc1nnc(SCC)s1`, the Potency is reported as inconclusive: 1.3 µM [falling, full curve, poor fit]. For `C=CCOC(=O)c1sc(NC(=O)c2ccco2)nc1C`, the Potency was inconclusive: 25.9 µM [activator, single point].
